Measured values from the supplement of paper PMC12067093, “Discovery and optimisation of a covalent ligand for TRIM25 and its application to targeted protein ubiquitination” (Chemical Science, 2025).
The other results are listed elsewhere or left out.

The chains behind the UniProt entries cited, without tags or fusion partners. Where a name states a change or a piece, a line headed by the entry shows the natural chain unless it says otherwise.
UniProt Q9Y2K7: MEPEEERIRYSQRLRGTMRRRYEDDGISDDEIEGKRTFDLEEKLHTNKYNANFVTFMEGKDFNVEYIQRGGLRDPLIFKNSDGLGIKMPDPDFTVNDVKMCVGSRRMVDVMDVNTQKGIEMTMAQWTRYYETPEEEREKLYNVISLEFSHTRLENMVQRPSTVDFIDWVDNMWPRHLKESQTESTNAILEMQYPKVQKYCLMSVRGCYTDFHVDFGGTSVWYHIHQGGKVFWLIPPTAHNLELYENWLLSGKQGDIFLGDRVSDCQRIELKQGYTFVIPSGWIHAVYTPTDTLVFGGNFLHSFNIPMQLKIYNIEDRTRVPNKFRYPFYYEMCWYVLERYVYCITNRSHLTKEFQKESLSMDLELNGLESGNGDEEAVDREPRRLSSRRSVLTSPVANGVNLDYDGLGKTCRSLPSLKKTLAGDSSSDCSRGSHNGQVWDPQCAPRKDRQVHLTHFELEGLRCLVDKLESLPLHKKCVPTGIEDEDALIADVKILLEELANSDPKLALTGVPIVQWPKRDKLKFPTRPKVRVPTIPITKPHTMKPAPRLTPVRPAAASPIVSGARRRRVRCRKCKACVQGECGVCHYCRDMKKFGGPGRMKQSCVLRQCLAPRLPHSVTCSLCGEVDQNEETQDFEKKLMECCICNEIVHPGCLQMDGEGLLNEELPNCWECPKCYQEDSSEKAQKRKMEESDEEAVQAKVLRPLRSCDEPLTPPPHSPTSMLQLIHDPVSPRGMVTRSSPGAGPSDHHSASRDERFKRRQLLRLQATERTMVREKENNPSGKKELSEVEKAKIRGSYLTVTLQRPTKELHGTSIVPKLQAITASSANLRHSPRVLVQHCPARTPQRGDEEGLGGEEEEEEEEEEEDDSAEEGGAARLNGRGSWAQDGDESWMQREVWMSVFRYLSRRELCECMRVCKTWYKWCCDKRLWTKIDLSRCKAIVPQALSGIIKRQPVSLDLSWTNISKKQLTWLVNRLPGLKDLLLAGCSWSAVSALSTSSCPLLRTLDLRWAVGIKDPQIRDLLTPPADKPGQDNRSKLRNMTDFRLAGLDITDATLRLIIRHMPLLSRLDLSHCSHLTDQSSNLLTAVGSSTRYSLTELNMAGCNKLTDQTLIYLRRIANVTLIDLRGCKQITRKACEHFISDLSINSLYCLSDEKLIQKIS
UniProt Q14643, whole entry, looked up: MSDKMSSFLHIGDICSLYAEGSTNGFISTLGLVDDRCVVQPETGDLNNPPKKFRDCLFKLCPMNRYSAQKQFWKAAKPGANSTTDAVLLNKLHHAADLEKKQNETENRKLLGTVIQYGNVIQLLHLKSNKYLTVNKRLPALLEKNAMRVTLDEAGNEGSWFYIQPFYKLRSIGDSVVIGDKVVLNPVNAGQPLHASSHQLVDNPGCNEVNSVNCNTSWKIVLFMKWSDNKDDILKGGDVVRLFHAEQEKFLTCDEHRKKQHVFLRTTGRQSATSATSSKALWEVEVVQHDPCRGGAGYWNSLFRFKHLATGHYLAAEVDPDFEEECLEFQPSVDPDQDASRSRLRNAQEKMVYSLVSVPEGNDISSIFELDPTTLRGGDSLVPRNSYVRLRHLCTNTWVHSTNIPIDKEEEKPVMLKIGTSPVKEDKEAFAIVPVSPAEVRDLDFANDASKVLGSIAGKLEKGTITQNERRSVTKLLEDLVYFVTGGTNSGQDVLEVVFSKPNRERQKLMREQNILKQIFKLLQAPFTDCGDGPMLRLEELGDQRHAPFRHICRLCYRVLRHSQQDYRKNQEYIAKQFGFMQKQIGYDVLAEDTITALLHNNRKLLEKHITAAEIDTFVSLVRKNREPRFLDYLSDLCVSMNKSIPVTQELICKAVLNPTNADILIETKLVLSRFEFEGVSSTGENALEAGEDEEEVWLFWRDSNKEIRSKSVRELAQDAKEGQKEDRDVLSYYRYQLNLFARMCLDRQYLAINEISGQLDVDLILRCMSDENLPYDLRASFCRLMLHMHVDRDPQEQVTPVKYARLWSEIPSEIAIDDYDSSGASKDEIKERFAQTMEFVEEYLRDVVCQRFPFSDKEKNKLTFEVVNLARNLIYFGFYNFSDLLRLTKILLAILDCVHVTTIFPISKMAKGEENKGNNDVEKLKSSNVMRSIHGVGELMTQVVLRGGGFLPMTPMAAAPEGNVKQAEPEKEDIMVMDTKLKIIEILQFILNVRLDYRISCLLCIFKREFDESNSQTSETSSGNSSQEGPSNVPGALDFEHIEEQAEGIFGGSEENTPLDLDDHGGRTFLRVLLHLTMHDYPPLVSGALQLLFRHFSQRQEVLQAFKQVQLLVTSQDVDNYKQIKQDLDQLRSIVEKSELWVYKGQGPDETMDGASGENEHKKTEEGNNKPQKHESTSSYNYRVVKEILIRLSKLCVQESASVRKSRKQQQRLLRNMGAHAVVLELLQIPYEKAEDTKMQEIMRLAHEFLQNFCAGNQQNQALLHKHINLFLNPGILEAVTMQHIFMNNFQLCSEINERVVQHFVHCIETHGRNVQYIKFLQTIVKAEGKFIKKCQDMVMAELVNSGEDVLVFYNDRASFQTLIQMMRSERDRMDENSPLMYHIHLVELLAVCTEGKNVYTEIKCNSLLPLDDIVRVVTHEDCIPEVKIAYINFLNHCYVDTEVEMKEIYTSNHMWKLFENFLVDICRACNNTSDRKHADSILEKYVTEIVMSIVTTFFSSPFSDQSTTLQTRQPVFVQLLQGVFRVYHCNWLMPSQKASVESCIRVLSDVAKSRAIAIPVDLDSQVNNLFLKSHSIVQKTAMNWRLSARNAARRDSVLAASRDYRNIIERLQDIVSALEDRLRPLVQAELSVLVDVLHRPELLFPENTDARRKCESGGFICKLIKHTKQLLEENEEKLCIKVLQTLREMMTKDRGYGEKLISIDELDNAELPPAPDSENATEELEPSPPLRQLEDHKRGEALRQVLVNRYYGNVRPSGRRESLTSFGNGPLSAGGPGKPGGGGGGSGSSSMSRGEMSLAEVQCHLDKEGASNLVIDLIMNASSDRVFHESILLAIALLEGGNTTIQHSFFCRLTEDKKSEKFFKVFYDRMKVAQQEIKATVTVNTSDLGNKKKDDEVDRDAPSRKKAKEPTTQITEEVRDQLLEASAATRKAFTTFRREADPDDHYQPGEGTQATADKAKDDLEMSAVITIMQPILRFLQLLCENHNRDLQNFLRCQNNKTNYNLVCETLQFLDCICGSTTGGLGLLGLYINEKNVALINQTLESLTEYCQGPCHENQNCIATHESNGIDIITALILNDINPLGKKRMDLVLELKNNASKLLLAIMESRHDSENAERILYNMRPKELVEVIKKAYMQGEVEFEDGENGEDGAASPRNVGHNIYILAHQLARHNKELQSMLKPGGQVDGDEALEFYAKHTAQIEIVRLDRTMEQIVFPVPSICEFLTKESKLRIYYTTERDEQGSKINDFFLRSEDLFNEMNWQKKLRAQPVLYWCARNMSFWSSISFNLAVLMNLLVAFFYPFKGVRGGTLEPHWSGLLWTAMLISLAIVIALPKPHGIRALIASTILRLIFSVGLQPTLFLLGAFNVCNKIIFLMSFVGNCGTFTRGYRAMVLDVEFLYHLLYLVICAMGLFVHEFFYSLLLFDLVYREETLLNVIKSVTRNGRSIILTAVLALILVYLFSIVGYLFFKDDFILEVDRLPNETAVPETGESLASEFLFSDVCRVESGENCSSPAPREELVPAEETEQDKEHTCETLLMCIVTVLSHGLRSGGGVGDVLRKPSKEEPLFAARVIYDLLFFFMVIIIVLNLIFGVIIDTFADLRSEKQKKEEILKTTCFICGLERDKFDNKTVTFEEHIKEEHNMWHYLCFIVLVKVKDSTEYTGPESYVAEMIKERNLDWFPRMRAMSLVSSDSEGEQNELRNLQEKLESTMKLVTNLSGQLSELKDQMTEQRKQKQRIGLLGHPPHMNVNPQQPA
UniProt Q92993, whole entry, looked up: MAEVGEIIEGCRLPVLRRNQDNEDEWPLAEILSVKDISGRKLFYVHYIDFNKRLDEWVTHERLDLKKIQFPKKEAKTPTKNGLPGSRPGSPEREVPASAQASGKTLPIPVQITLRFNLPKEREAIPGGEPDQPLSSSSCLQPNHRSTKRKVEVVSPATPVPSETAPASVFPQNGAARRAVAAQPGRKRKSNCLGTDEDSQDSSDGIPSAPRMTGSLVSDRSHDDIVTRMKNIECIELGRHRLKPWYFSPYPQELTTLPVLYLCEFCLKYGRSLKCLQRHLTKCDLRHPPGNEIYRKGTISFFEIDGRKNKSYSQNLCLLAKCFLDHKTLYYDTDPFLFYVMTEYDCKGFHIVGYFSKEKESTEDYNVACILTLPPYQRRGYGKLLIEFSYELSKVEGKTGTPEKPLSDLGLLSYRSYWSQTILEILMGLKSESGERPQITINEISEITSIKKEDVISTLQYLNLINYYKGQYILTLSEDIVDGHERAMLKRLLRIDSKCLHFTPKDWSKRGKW
UniProt Q14145, whole entry, looked up: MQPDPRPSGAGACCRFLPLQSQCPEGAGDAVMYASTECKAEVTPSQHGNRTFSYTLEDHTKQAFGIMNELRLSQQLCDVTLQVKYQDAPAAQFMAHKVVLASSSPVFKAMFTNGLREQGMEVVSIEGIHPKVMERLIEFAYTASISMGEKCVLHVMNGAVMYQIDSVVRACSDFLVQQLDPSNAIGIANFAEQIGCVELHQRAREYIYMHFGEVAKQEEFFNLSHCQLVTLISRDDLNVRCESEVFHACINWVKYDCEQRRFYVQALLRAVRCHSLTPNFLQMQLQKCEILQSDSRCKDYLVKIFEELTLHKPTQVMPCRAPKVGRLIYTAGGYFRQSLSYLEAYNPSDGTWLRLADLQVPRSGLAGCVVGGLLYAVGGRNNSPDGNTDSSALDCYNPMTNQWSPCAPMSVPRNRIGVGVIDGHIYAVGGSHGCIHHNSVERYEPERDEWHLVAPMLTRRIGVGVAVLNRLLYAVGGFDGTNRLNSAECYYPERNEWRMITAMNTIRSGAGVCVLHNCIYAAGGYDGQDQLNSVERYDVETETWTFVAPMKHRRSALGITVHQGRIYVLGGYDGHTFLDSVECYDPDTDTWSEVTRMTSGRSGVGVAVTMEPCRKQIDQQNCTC
UniProt Q92945: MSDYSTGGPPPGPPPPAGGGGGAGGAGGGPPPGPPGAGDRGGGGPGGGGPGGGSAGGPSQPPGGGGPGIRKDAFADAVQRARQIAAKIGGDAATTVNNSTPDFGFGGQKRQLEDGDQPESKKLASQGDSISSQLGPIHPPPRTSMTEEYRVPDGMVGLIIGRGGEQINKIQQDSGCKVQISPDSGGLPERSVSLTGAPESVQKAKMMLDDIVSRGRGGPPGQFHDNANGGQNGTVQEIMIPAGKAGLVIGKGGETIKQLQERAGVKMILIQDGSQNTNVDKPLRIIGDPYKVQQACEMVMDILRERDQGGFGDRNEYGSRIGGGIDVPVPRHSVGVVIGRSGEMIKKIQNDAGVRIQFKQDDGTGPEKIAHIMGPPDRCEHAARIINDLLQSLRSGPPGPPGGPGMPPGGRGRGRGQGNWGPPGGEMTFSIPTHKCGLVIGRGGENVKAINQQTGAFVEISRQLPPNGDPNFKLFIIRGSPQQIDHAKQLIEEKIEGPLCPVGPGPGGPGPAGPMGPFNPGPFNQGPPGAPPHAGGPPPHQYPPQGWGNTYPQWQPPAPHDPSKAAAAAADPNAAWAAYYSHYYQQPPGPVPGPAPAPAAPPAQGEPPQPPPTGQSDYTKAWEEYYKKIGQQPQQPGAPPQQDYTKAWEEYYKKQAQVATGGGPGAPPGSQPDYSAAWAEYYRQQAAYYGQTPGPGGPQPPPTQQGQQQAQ
UniProt O94819: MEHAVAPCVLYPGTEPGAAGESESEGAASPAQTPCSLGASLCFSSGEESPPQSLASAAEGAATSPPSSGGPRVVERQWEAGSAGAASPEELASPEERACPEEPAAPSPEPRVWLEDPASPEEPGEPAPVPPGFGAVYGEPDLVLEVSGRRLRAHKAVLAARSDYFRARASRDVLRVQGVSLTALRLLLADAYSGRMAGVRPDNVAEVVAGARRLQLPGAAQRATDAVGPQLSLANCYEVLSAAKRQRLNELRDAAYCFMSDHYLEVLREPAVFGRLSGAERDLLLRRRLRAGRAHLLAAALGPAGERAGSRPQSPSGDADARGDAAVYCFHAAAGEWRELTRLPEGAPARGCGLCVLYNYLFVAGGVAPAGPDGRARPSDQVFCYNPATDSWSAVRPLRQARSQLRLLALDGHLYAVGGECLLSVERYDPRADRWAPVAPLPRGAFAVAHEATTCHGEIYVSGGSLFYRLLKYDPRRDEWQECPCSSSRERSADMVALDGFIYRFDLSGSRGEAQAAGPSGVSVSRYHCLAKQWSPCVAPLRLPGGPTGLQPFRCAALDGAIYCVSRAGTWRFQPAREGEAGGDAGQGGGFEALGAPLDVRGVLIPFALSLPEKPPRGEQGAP

Compound: CC1Cc2ccccc2N1C(=O)C1CCCN(C1)C(=O)CCl (mixture of isomers) [TRIM25 ligand 11 (diastereomer mixture)]
Experiment: probe-labelled cysteine peptide fold change vs DMSO (competition) (log2 fold change); higher = less target engagement (more negative = stronger competition)
Details: THP-1, incubation time: 4 h
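Note: competitive chemoproteomic profiling in live THP-1 cells with an iodoacetamide desthiobiotin (IA-DTB) probe, comparing probe-labelled peptide intensities in compound-treated cells against DMSO-treated controls.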

ITSN2_Q9NZM3_1429_ENSDRLEWIQAHVQCEGLAEQLIFNSLTNCLGPR (UniProt Q9NZM3)
probe-labelled cysteine peptide fold change (10 µM): -0.507
probe-labelled cysteine peptide fold change (50 µM): -0.633

JMY_Q8N9B5_721_GAASPVLQEDHCDSLPSVLQVEEK (UniProt Q8N9B5)
probe-labelled cysteine peptide fold change (10 µM): -0.19
probe-labelled cysteine peptide fold change (50 µM): -0.041

KDM5C_P41229_707_GITEAEREAFELLPDDERQCIK (UniProt P41229)
probe-labelled cysteine peptide fold change (10 µM): 0.00664
probe-labelled cysteine peptide fold change (50 µM): 0.123

KDM3B_Q7LBC6_1392_LLCLHDPSNK (UniProt Q7LBC6)
probe-labelled cysteine peptide fold change (10 µM): -0.0179
probe-labelled cysteine peptide fold change (50 µM): 0.17

KDM2A_Q9Y2K7_429_TLAGDSSSDCSR (UniProt Q9Y2K7)
probe-labelled cysteine peptide fold change (10 µM): -0.151
probe-labelled cysteine peptide fold change (50 µM): -0.422

KANK2_Q63ZY3_761+780_ALLACEADVNVQDDDGSTALMCACEHGHK (UniProt Q63ZY3)
probe-labelled cysteine peptide fold change (10 µM): 0.0346
probe-labelled cysteine peptide fold change (50 µM): -0.091

ITPR1_Q14643_768_CMSDENLPYDLR (UniProt Q14643)
probe-labelled cysteine peptide fold change (10 µM): -0.028
probe-labelled cysteine peptide fold change (50 µM): 0.197

KANSL2_Q9H9L4_46_LEGQEFCIK (UniProt Q9H9L4)
probe-labelled cysteine peptide fold change (10 µM): 0.127
probe-labelled cysteine peptide fold change (50 µM): 0.142

KAT5_Q92993_11_AEVGEIIEGCR (UniProt Q92993)
probe-labelled cysteine peptide fold change (10 µM): 0.229
probe-labelled cysteine peptide fold change (50 µM): 0.219

IVD_P26440_261_GSNTCELIFEDCKIPAANILGHENK (UniProt P26440)
probe-labelled cysteine peptide fold change (10 µM): -0.304
probe-labelled cysteine peptide fold change (50 µM): -0.0593

KDM3A_Q9Y4C1_1009_EFGEQEVDLVNCR (UniProt Q9Y4C1)
probe-labelled cysteine peptide fold change (10 µM): 0.112
probe-labelled cysteine peptide fold change (50 µM): -0.0279

KDSR_Q06136_47_CIAIECYK (UniProt Q06136)
probe-labelled cysteine peptide fold change (10 µM): -0.18
probe-labelled cysteine peptide fold change (50 µM): 0.239

KEAP1_Q14145_288_CEILQSDSR (UniProt Q14145)
probe-labelled cysteine peptide fold change (10 µM): -0.0749
probe-labelled cysteine peptide fold change (50 µM): -0.113

ITPA_Q9BY32_57_CQEAVR (UniProt Q9BY32)
probe-labelled cysteine peptide fold change (10 µM): -0.00384
probe-labelled cysteine peptide fold change (50 µM): 0.103

KHNYN_O15037_46_DCPDNPHIWLQLEGPK (UniProt O15037)
probe-labelled cysteine peptide fold change (10 µM): 0.0475
probe-labelled cysteine peptide fold change (50 µM): -0.0573

ITPR1_Q14643_1531_VYHCNWLMPSQK (UniProt Q14643)
probe-labelled cysteine peptide fold change (10 µM): 0.0297
probe-labelled cysteine peptide fold change (50 µM): 0.213

KHSRP_Q92945_436_CGLVIGR (UniProt Q92945)
probe-labelled cysteine peptide fold change (10 µM): -0.0539
probe-labelled cysteine peptide fold change (50 µM): 0.0432

KHSRP_Q92945_379_CEHAAR (UniProt Q92945)
probe-labelled cysteine peptide fold change (10 µM): -0.0711
probe-labelled cysteine peptide fold change (50 µM): 0.0724

JUP_P14923_457_AGDKDDITEPAVCALR (UniProt P14923)
probe-labelled cysteine peptide fold change (10 µM): -0.0404
probe-labelled cysteine peptide fold change (50 µM): 0.102

KDM4A_O75164_798_ANDDRWVHVSCAVAILEAR (UniProt O75164)
probe-labelled cysteine peptide fold change (10 µM): 0.167
probe-labelled cysteine peptide fold change (50 µM): -0.0809

KIF15_Q9NS87_1062_ILSEDIERDMLCEDLAHATEQLNMLTEASKK (UniProt Q9NS87)
probe-labelled cysteine peptide fold change (10 µM): -0.437
probe-labelled cysteine peptide fold change (50 µM): -0.338

IVNS1ABP_Q9Y6Y0_32_SGQFCDVR (UniProt Q9Y6Y0)
probe-labelled cysteine peptide fold change (10 µM): 0.0251
probe-labelled cysteine peptide fold change (50 µM): 0.062

KAT2A_Q92830_653_DYEGATLMECELNPR (UniProt Q92830)
probe-labelled cysteine peptide fold change (10 µM): 0.0318
probe-labelled cysteine peptide fold change (50 µM): -0.0486

KARS_Q15046_434_AVECPPPR (UniProt Q15046)
probe-labelled cysteine peptide fold change (10 µM): 0.133
probe-labelled cysteine peptide fold change (50 µM): 0.0775

KDM2A_Q9Y2K7_463_CLVDKLESLPLHKK (UniProt Q9Y2K7)
probe-labelled cysteine peptide fold change (10 µM): -0.336
probe-labelled cysteine peptide fold change (50 µM): -0.186

KDM3B_Q7LBC6_569_QSLESLSSGLCK (UniProt Q7LBC6)
probe-labelled cysteine peptide fold change (10 µM): -0.082
probe-labelled cysteine peptide fold change (50 µM): -0.241

ITPR1_Q14643_2536_EHTCETLLMCIVTVLSHGLR (UniProt Q14643)
probe-labelled cysteine peptide fold change (10 µM): 0.0876
probe-labelled cysteine peptide fold change (50 µM): 0.0122

KIF1B_O60333_581_EEHCIFR (UniProt O60333)
probe-labelled cysteine peptide fold change (10 µM): -0.165
probe-labelled cysteine peptide fold change (50 µM): 0.154

KEAP1_Q14145_226_QEEFFNLSHCQLVTLISR (UniProt Q14145)
probe-labelled cysteine peptide fold change (10 µM): 0.401
probe-labelled cysteine peptide fold change (50 µM): 0.233

JADE1_Q6IE81_258+261_CLLCPK (UniProt Q6IE81)
probe-labelled cysteine peptide fold change (10 µM): -0.0455
probe-labelled cysteine peptide fold change (50 µM): 0.148

KCMF1_Q9P0J7_54_HTTDHPMQCILTR (UniProt Q9P0J7)
probe-labelled cysteine peptide fold change (10 µM): -0.00917
probe-labelled cysteine peptide fold change (50 µM): -0.145

JAK2_O60674_178_VPVTHETQEECLGMAVLDMMR (UniProt O60674)
probe-labelled cysteine peptide fold change (10 µM): -0.00582
probe-labelled cysteine peptide fold change (50 µM): -0.00309

KDM3B_Q7LBC6_999_YILANVGDQFCQLVMSEK (UniProt Q7LBC6)
probe-labelled cysteine peptide fold change (10 µM): 0.122
probe-labelled cysteine peptide fold change (50 µM): 0.15

KDM5C_P41229_376_CVMAECK (UniProt P41229)
probe-labelled cysteine peptide fold change (10 µM): -0.0487
probe-labelled cysteine peptide fold change (50 µM): 0.00524

KBTBD11_O94819_485_RDEWQECPCSSSR (UniProt O94819)
probe-labelled cysteine peptide fold change (10 µM): -0.0629
probe-labelled cysteine peptide fold change (50 µM): 0.00476

KDM5C_P41229_267_EGPECPPTVVVK (UniProt P41229)
probe-labelled cysteine peptide fold change (10 µM): 0.0279
probe-labelled cysteine peptide fold change (50 µM): -0.0699

KDM3B_Q7LBC6_1212_AIRPPCPDTAPPSSALHWLADLATQK (UniProt Q7LBC6)
probe-labelled cysteine peptide fold change (10 µM): 0.0358
probe-labelled cysteine peptide fold change (50 µM): -0.236

KBTBD11_O94819_329_GDAAVYCFHAAAGEWR (UniProt O94819)
probe-labelled cysteine peptide fold change (10 µM): 0.247
probe-labelled cysteine peptide fold change (50 µM): 0.242

KDM5A_P29375_1409_SCSQGSSTPR (UniProt P29375)
probe-labelled cysteine peptide fold change (10 µM): -0.12
probe-labelled cysteine peptide fold change (50 µM): -0.168
